Test results as given in the supplement of paper PMC10849652.
This is one part of the list.

Protein sequences, listed by entry. Tags and fused reporters are not part of them. Lines headed by an entry give the natural chain unless they say otherwise; changes in a name come on top.
UniProt P26196: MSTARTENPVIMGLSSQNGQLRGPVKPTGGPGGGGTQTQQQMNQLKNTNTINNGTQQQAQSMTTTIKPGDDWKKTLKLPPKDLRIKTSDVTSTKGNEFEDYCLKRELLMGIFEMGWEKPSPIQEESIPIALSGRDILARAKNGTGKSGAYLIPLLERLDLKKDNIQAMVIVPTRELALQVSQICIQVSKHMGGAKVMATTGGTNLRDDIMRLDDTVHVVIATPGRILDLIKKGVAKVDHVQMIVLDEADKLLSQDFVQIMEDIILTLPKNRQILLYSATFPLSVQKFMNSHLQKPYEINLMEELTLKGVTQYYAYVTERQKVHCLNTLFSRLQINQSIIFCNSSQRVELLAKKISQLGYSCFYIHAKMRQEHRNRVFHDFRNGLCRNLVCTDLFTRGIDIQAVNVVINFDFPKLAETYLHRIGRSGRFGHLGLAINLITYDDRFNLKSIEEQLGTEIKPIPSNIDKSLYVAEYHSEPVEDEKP
UniProt Q96GE9: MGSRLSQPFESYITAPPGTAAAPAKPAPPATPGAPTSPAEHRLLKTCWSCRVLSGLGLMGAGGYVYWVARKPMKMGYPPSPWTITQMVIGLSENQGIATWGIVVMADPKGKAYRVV
UniProt Q7Z401: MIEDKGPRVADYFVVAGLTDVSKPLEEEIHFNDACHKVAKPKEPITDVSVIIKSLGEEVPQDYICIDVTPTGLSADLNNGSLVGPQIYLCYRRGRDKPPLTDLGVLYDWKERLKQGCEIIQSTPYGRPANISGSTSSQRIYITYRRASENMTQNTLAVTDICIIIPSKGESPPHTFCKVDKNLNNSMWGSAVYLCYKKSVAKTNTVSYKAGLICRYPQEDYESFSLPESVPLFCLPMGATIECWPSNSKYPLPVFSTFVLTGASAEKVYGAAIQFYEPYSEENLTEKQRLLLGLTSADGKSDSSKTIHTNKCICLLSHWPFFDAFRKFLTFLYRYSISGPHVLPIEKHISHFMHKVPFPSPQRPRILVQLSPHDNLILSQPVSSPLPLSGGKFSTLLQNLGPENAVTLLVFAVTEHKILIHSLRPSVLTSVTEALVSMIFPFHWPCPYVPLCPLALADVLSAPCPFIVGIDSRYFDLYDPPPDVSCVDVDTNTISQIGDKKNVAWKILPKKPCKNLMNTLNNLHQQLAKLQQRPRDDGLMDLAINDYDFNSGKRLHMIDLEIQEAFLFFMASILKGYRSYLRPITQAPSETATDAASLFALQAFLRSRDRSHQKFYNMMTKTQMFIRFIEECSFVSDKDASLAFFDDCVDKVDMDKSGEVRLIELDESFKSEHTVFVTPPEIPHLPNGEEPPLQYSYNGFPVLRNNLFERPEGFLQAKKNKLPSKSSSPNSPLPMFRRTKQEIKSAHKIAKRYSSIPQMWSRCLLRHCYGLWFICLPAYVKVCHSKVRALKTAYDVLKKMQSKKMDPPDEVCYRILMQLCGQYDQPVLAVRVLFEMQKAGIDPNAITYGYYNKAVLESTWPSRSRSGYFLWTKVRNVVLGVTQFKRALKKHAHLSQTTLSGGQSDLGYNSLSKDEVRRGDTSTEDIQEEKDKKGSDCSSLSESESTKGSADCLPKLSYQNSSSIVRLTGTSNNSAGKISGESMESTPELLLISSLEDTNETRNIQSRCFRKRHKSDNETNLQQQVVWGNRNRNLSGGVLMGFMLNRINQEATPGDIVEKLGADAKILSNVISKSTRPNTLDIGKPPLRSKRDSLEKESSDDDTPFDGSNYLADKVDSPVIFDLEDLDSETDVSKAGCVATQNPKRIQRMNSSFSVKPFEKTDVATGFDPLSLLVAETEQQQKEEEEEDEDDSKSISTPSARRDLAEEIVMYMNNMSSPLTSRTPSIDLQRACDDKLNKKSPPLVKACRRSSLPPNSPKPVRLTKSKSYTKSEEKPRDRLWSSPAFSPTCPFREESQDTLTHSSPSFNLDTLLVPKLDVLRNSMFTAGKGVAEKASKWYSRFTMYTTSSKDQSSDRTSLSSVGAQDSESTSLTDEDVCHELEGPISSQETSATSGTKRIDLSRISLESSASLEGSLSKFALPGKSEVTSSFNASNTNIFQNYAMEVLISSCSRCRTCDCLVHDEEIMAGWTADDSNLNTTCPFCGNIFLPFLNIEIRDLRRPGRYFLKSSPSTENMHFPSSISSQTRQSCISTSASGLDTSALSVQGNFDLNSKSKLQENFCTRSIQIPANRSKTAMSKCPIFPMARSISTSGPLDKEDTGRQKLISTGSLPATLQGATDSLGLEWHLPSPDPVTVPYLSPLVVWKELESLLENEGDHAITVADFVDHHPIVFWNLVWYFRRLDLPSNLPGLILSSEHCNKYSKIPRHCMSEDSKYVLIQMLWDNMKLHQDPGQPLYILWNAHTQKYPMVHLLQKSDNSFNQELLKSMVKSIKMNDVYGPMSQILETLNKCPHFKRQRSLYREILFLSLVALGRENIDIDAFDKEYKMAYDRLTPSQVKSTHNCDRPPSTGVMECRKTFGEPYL
UniProt Q16531, whole entry, looked up: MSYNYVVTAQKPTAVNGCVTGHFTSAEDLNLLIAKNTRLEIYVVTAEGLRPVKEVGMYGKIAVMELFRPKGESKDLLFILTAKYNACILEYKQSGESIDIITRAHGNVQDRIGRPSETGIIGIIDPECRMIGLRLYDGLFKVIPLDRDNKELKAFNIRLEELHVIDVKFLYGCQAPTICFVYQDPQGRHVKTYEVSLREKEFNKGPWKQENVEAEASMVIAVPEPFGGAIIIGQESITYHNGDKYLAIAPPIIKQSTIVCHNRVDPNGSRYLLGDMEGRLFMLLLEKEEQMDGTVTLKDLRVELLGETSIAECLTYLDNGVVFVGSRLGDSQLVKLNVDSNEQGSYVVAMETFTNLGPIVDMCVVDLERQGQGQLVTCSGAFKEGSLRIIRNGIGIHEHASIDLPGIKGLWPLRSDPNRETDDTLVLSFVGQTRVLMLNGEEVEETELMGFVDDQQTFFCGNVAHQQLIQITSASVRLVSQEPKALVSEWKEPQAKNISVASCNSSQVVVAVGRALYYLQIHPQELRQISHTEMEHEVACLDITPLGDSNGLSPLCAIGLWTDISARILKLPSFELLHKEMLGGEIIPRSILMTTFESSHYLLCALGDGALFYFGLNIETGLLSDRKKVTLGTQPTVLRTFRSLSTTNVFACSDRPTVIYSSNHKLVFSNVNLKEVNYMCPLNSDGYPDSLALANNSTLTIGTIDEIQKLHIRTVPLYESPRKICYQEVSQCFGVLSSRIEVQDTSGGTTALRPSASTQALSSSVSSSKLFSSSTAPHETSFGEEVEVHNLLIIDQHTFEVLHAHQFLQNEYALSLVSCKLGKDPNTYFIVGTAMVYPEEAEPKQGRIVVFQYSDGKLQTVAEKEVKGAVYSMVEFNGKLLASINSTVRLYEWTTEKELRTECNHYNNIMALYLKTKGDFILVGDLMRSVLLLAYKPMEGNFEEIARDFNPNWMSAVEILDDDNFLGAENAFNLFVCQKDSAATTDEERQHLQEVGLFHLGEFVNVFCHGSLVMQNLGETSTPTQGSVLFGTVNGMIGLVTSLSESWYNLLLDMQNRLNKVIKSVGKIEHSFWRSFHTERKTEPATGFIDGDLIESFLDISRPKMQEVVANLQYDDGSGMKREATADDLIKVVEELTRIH
UniProt Q96HY6: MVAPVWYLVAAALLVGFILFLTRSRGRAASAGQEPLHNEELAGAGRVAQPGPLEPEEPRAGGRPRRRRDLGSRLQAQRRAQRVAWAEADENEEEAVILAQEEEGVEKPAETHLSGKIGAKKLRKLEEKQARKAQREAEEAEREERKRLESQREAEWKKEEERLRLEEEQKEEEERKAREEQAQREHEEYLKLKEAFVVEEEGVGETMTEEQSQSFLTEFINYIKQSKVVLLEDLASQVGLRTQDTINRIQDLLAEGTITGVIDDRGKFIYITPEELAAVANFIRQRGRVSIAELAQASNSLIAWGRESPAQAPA
UniProt Q7Z4W1: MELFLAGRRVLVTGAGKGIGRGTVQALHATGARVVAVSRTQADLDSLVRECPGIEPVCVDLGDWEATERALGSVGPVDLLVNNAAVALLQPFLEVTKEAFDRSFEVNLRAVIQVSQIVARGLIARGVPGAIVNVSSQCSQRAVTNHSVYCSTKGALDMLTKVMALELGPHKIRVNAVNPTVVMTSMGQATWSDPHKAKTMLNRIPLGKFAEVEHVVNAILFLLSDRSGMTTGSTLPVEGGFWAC
UniProt Q99766: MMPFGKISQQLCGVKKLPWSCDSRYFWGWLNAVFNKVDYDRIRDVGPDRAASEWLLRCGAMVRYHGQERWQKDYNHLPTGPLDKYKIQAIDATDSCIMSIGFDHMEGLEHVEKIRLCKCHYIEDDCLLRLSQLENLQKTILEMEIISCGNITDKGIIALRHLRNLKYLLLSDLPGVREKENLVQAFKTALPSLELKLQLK
UniProt P35659: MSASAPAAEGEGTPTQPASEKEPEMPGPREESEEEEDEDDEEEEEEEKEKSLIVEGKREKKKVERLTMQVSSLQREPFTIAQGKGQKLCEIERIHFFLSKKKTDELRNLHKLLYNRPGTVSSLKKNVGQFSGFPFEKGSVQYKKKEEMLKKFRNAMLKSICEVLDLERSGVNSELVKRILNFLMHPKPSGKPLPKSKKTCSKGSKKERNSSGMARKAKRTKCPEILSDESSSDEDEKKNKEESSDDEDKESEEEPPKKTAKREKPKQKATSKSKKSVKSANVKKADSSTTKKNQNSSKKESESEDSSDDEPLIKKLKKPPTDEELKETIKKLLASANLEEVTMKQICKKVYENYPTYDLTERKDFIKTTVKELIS
UniProt Q9Y6V7: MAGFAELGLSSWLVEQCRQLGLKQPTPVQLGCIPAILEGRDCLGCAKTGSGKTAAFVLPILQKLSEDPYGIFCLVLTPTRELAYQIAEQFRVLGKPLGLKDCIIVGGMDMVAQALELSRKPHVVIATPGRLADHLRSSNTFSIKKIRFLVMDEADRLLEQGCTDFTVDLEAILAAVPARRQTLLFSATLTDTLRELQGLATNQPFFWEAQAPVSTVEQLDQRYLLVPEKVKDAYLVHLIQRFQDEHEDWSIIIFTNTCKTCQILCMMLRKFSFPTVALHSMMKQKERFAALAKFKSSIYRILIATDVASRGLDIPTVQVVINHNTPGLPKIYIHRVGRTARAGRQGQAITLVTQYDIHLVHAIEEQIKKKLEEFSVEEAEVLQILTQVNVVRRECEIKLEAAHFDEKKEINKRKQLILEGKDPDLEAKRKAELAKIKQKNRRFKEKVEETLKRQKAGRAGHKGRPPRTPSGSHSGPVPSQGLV
UniProt Q9UNQ2: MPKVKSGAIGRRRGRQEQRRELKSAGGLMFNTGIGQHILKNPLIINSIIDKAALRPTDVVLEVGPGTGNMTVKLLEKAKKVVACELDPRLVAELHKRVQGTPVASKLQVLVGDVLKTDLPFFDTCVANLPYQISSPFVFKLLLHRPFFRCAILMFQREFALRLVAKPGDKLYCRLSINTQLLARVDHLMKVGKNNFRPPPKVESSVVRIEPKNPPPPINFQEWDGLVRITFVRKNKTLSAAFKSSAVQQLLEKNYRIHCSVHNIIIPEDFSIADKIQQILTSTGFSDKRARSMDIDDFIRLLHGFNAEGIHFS
UniProt Q15392: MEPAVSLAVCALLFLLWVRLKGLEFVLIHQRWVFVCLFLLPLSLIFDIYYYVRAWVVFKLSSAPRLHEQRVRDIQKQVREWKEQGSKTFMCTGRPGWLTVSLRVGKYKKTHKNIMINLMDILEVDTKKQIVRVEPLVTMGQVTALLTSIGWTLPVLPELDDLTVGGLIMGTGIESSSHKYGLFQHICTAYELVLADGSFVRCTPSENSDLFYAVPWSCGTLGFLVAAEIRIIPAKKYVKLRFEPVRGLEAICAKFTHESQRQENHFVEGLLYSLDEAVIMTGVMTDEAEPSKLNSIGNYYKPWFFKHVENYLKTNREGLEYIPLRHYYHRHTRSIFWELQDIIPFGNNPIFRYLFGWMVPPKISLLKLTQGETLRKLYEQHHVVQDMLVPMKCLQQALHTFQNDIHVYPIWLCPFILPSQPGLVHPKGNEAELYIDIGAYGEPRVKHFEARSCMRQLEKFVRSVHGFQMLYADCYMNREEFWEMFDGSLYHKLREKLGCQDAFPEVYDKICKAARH
UniProt Q13268: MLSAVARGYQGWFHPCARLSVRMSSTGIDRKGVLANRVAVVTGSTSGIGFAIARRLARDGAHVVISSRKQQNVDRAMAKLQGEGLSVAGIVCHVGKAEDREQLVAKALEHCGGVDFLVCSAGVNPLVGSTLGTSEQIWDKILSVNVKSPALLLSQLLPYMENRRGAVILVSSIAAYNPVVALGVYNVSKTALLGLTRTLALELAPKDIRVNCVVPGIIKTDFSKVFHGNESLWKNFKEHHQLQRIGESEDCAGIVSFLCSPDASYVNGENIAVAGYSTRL
UniProt Q9BSY9: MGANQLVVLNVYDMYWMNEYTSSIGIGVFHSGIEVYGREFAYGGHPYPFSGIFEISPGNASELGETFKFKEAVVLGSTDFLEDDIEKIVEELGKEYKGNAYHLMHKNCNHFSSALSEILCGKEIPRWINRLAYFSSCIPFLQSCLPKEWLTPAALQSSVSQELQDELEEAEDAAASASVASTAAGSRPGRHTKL

Tests used:
Assay in all cases: log2 fold change, soluble protein after heating vs DMSO (PISA); higher = thermal stabilisation; K562 cells, 10 uM, 30 min; active = over 0.2 and 3.5 SD of the protein, either way, in both replicates (recomputed)
[1] = compound: COC1=CC=C(C=C1)CN2C=CC3=C2C=C(C=C3)C(=O)NO
In short: (§1)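 K562 cells at 2×10^6 cells/mL were exposed to 10 μM compound for 30 min, then aliquots were heated for 3 min across 48°C-58°C, pooled, and extracted in PBS containing 0.5% NP-40 at 4°C. The supernatant after 21,000xg for 90 min was taken as soluble protein and measured by TMTpro 16plex LC-MS/MS with channel sums equalised. Thermal stability is reported relative to control samples, with values from duplicates. Fold changes are given on a log2 scale.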

filanesib = compound: CON(C)C(=O)N1N=C(c2cc(F)ccc2F)S[C@@]1(CCCN)c1ccccc1 [filanesib]
In short: as §1

zotarolimus = compound: CO[C@H]1C[C@@H]2CC[C@@H](C)[C@@](O)(O2)C(=O)C(=O)N2CCCC[C@H]2C(=O)O[C@H]([C@H](C)C[C@@H]2CC[C@H](n3cnnn3)[C@H](OC)C2)CC(=O)[C@H](C)/C=C(\C)[C@@H](O)[C@@H](OC)C(=O)[C@H](C)C[C@H](C)/C=C/C=C/C=C/1C [zotarolimus]
In short: as §1

idasanutlin = compound: COc1cc(C(=O)O)ccc1NC(=O)[C@@H]1N[C@@H](CC(C)(C)C)[C@](C#N)(c2ccc(Cl)cc2F)[C@H]1c1cccc(Cl)c1F [idasanutlin]
In short: as §1

alisertib = compound: COc1cc(Nc2ncc3c(n2)-c2ccc(Cl)cc2C(c2c(F)cccc2OC)=NC3)ccc1C(=O)O [alisertib]
In short: as §1

[2] = compound: COc1cc2nc(-c3cc(F)ccc3O)nc(N[C@@H]3CNC[C@H]3C(C)(C)O)c2cc1OC
In short: as §1

gefitinib = compound: COc1cc2ncnc(Nc3ccc(F)c(Cl)c3)c2cc1OCCCN1CCOCC1 [gefitinib]
In short: as §1

[3] = compound: COc1cccc2cc(-c3nc([C@H]4CC[C@H](C(=O)O)CC4)n4ncnc(N)c34)[nH]c12
In short: as §1

lapatinib = compound: CS(=O)(=O)CCNCc1ccc(-c2ccc3ncnc(Nc4ccc(OCc5cccc(F)c5)c(Cl)c4)c3c2)o1 [lapatinib]
In short: as §1

pictilisib = compound: CS(=O)(=O)N1CCN(Cc2cc3nc(-c4cccc5[nH]ncc45)nc(N4CCOCC4)c3s2)CC1 [pictilisib]
In short: as §1

Target | log2 fold change [1] | log2 fold change (filanesib) | log2 fold change (zotarolimus) | log2 fold change (idasanutlin) | log2 fold change (alisertib) | log2 fold change [2] | log2 fold change (gefitinib) | log2 fold change [3] | log2 fold change (lapatinib) | log2 fold change (pictilisib)
DDX6 (UniProt P26196) | inactive: -0.022 | inactive: 0.053 | inactive: -0.027 | inactive: -0.024 | inactive: -0.048 | inactive: 0.046 | inactive: -0.015 | inactive: -0.059 | inactive: -0.001 | inactive: -0.004
DMAC1 (UniProt Q96GE9) | inactive: -0.121 | inactive: 0.04 | inactive: -0.04 | inactive: -0.339 | inactive: -0.174 | inactive: -0.111 | inactive: -0.074 | inactive: 0.145 | inactive: 0.053 | inactive: 0.038
DENND4A isoform 2 (UniProt Q7Z401) | inactive: -0.249 | inactive: 0.095 | inactive: -0.258 | inactive: 0.055 | inactive: 1.17 | inactive: -0.052 | inactive: -0.069 | inactive: -0.384 | inactive: 0.145 | inactive: -0.189
DHX8 (UniProt Q14562) | inactive: -0.173 | inactive: 0.014 | inactive: -0.054 | inactive: 0.005 | inactive: -0.078 | inactive: 0.164 | inactive: 0.002 | inactive: 0.029 | inactive: -0.107 | inactive: 0.116
DDB1 (UniProt Q16531) | inactive: -0.024 | inactive: -0.015 | inactive: -0.017 | inactive: -0.029 | inactive: -0.06 | inactive: 0.006 | inactive: -0.012 | inactive: 0.061 | inactive: -0.022 | inactive: 0.025
DDRGK1 (UniProt Q96HY6) | inactive: 0.005 | inactive: 0.005 | inactive: -0.034 | inactive: 0.024 | inactive: -0.068 | inactive: 0.048 | inactive: 0 | inactive: -0.002 | inactive: 0.002 | inactive: -0.011
DLGAP5 (UniProt Q15398) | inactive: -0.038 | inactive: 0.011 | inactive: -0.01 | inactive: 0.08 | inactive: 0.032 | inactive: -0.075 | inactive: 0.014 | inactive: -0.058 | inactive: 0.016 | inactive: 0.006
DCXR (UniProt Q7Z4W1) | inactive: -0.06 | inactive: 0.006 | inactive: -0.006 | inactive: -0.042 | inactive: -0.065 | inactive: 0.052 | inactive: -0.013 | inactive: 0.053 | inactive: -0.019 | inactive: 0.099
DDX59 (UniProt Q5T1V6) | inactive: 0.023 | inactive: -0.001 | inactive: -0.004 | inactive: -0.084 | inactive: 0.012 | inactive: 0.045 | inactive: -0.034 | inactive: 0.008 | inactive: 0.022 | inactive: 0.045
DHX16 (UniProt O60231) | inactive: 0.008 | inactive: 0.096 | inactive: 0.023 | inactive: -0.03 | inactive: -0.079 | inactive: 0.028 | inactive: 0.043 | inactive: 0.04 | inactive: 0.02 | inactive: -0.012
DDA1 (UniProt Q9BW61) | inactive: 0.01 | inactive: -0.006 | inactive: -0.035 | inactive: 0.006 | inactive: -0.062 | inactive: 0.015 | inactive: 0.005 | inactive: 0.026 | inactive: -0.011 | inactive: 0.07
DMAC2L (UniProt Q99766) | inactive: -0.009 | inactive: -0.012 | inactive: 0 | inactive: -0.04 | inactive: -0.068 | inactive: 0.133 | inactive: -0.02 | inactive: 0.024 | inactive: 0.021 | inactive: 0.005
DEK (UniProt P35659) | inactive: 0.179 | inactive: -0.03 | inactive: 0.093 | inactive: -0.006 | inactive: 0.002 | inactive: 0.026 | inactive: 0.019 | inactive: -0.018 | inactive: -0.016 | inactive: 0.035
DDX49 (UniProt Q9Y6V7) | inactive: -0.052 | inactive: 0.213 | inactive: 0.001 | inactive: 0.055 | inactive: -0.138 | inactive: -0.02 | inactive: -0.041 | inactive: -0.091 | inactive: 0.1 | inactive: 0.062
DNAJA1 (UniProt P31689) | inactive: -0.065 | inactive: -0.006 | inactive: -0.012 | inactive: -0.015 | inactive: 0 | inactive: -0.011 | inactive: 0.011 | inactive: 0.055 | inactive: -0.023 | inactive: -0.034
DNAH11 (UniProt Q96DT5) | inactive: 0 | inactive: 0.047 | inactive: 0.04 | inactive: 0.03 | inactive: -0.025 | inactive: -0.137 | inactive: -0.002 | inactive: -0.203 | inactive: 0.216 | inactive: 0.552
DNAAF5 (UniProt Q86Y56) | inactive: 0.022 | inactive: 0.307 | inactive: 0.184 | inactive: 0.234 | inactive: -0.187 | inactive: -0.051 | – | inactive: -0.307 | inactive: 0.097 | inactive: -0.053
DDX39B isoform 2 (UniProt Q13838) | inactive: -0.028 | inactive: 0.084 | inactive: -0.009 | inactive: 0.037 | inactive: -0.117 | inactive: 0.074 | inactive: -0.045 | inactive: -0.022 | inactive: 0 | inactive: 0.006
DIMT1 (UniProt Q9UNQ2) | inactive: -0.02 | inactive: 0.257 | inactive: -0.02 | inactive: 0.095 | inactive: 0.094 | inactive: -0.055 | inactive: -0.032 | inactive: -0.193 | inactive: 0.11 | inactive: -0.097
DHCR24 (UniProt Q15392) | inactive: 0.061 | inactive: -0.074 | inactive: 0.013 | inactive: -0.087 | inactive: -0.123 | inactive: 0.047 | active: 1.05 | inactive: -0.038 | inactive: 0.711 | inactive: 0.055
DNAH5 (UniProt Q8TE73) | inactive: -0.147 | inactive: -0.061 | inactive: 0.024 | – | inactive: 0.011 | inactive: -0.042 | inactive: 0.046 | inactive: 0.058 | active: -0.484 | inactive: -0.001
DLAT (UniProt P10515) | inactive: -0.084 | inactive: 0.192 | inactive: 0.023 | inactive: 0.126 | inactive: -0.143 | inactive: -0.154 | inactive: -0.121 | inactive: -0.238 | inactive: 0.24 | inactive: -0.128
DHRS2 (UniProt Q13268) | inactive: -0.034 | inactive: -0.014 | inactive: 0.035 | inactive: -0.152 | inactive: -0.046 | inactive: 0.01 | inactive: 0.018 | inactive: 0.041 | inactive: 0.041 | inactive: 0.163
DNAH10 (UniProt Q8IVF4) | active: 0.574 | inactive: -0.187 | inactive: -0.046 | – | inactive: -0.042 | – | inactive: -0.04 | inactive: 0.007 | – | inactive: 0.052
DES (UniProt P17661) | inactive: -0.128 | inactive: -0.032 | inactive: -0.016 | inactive: -0.046 | inactive: -0.129 | inactive: 0.189 | inactive: -0.002 | inactive: -0.031 | inactive: -0.106 | inactive: 0.058
DDX17 (UniProt Q92841) | inactive: 0.047 | inactive: 0.047 | inactive: 0.01 | inactive: 0.007 | inactive: -0.046 | inactive: 0.035 | inactive: -0.023 | inactive: 0.021 | inactive: 0.036 | inactive: 0.032
DESI2 (UniProt Q9BSY9) | inactive: 0.018 | inactive: 0.061 | – | – | – | inactive: -0.11 | inactive: 0.054 | – | inactive: -0.043 | –

Another view of some results above.
Target	log2 fold change [1]	log2 fold change (filanesib)	log2 fold change (zotarolimus)	log2 fold change (idasanutlin)	log2 fold change (alisertib)	log2 fold change [2]	log2 fold change (gefitinib)	log2 fold change [3]	log2 fold change (lapatinib)	log2 fold change (pictilisib)
DIMT1 (UniProt Q9UNQ2)	inactive: -0.02	inactive: 0.257	inactive: -0.02	inactive: 0.095	inactive: 0.094	inactive: -0.055	inactive: -0.032	inactive: -0.193	inactive: 0.11	inactive: -0.097
DHCR24 (UniProt Q15392)	inactive: 0.061	inactive: -0.074	inactive: 0.013	inactive: -0.087	inactive: -0.123	inactive: 0.047	active: 1.05	inactive: -0.038	inactive: 0.711	inactive: 0.055
